Source: patent publication US10647704B2, “Pharmaceutical compounds” (CELLCENTRIC LTD, priority 2016, dated 2020)
Some of these results come from one statement about several compounds together. Some ranges recur; such a range may be that of the whole group of compounds.

Key:
[1] = target: T1, His-tagged EP300 Bromodomain (1046-1163) (Homo sapiens, UniProt Q09472); experiment: Surface Plasmon Resonance (BIAcore) analysis of binding to EP300; conditions: BIAcore T200 at 4° C., 1:1 interaction model, KD = kd/ka, geometric mean of two tests
T1 construct: His-tagged EP300 Bromodomain (1046-1163)
T1 sequence (Q09472 1046-1163): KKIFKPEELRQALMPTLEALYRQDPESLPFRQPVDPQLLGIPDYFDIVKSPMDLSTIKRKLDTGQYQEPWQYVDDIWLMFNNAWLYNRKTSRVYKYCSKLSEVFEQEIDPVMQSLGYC

[2] = target: T2, His-tagged CBP Bromodomain (1081-1197) (Homo sapiens, UniProt Q92793); experiment: Surface Plasmon Resonance (BIAcore) analysis of binding to CBP; conditions: BIAcore T200 at 4° C., 1:1 interaction model, KD = kd/ka, geometric mean of two tests
T2 construct: His-tagged CBP Bromodomain (1081-1197)

Structure (SMILES)	Kd [1] [nM]	Kd [2] [nM]
Cc1ncn(C)c1-c1ccc2c(c1)nc([C@@H]1CCCC(=O)N1c1ccc(F)c(F)c1)n2[C@H]1CC[C@H](O)CC1 [Compound 19, (S)-1-(3,4-difluorophenyl)-6-(5-(1,4-dimethyl-1H-imidazol-5-yl)-1-(trans-4-hydroxycyclohexyl)-1H-benzo[d]imidazol-2-yl)piperidin-2-one]	1 to 200	1 to 200
COc1ccc(N2C(=O)CCC[C@H]2c2nc3cc(-c4c(C)nnn4C)ccc3n2C2CCC(F)(F)CC2)cc1F [Compound 11, (S)-6-(1-(4,4-difluorocyclohexyl)-5-(1,4-dimethyl-1H-1,2,3-triazol-5-yl)-1H-benzo[d]imidazol-2-yl)-1-(3-fluoro-4-methoxyphenyl)piperidin-2-one]	1 to 200	1 to 200
COc1ccc(N2C(=O)CCC[C@H]2c2nc3cc(-c4c(C)ncn4C)ccc3n2C2CCC(F)(F)CC2)cc1F [Compound 21, (S)-6-(1-(4,4-difluorocyclohexyl)-5-(1,4-dimethyl-1H-imidazol-5-yl)-1H-benzo[d]imidazol-2-yl)-1-(3-fluoro-4-methoxyphenyl)piperidin-2-one]	1 to 200	1 to 200
Cc1nnn(C)c1-c1ccc2c(c1)nc([C@@H]1CCCC(=O)N1c1ccc(F)c(F)c1)n2[C@H]1CC[C@H](O)CC1 [Compound 10, (S)-1-(3,4-difluorophenyl)-6-(5-(1,4-dimethyl-1H-1,2,3-triazol-5-yl)-1-(trans-4-hydroxycyclohexyl)-1H-benzo[d]imidazol-2-yl)piperidin-2-one]	1 to 200	1 to 200
COc1ccc(N2C(=O)CCC[C@H]2c2nc3cc(-c4c(C)ncn4C)ccc3n2[C@H]2CC[C@H](OC)CC2)cc1F [Compound 22, (S)-6-(5-(1,4-dimethyl-1H-imidazol-5-yl)-1-(trans-4-methoxycyclohexyl)-1H-benzo[d]imidazol-2-yl)-1-(3-fluoro-4-methoxyphenyl)piperidin-2-one]	1 to 200	1 to 200
Cc1nnn(C)c1-c1ccc2c(c1)nc([C@@H]1CCCC(=O)N1c1ccc(F)c(Cl)c1)n2[C@H]1CC[C@H](O)CC1 [Compound 7, (S)-1-(3-chloro-4-fluorophenyl)-6-(5-(1,4-dimethyl-1H-1,2,3-triazol-5-yl)-1-((trans)-4-hydroxycyclohexyl)-1H-benzo[d]imidazol-2-yl)piperidin-2-one]	1 to 200	1 to 200
Cc1nnn(C)c1-c1ccc2c(c1)nc([C@@H]1CCCC(=O)N1c1ccc(F)c(Cl)c1)n2[C@H]1CC[C@@](C)(O)CC1 [Compound 9, (S)-1-(3-chloro-4-fluorophenyl)-6-(5-(1,4-dimethyl-1H-1,2,3-triazol-5-yl)-1-(cis-4-hydroxy-4-methylcyclohexyl)-1H-benzo[d]imidazol-2-yl)piperidin-2-one]	1 to 200	1 to 200
COc1ccc(N2C(=O)CCC[C@H]2c2nc3cc(-c4c(C)nnn4C)ccc3n2[C@H]2CC[C@H](OC)CC2)cc1F [Compound 13, (S)-6-(5-(1,4-dimethyl-1H-1,2,3-triazol-5-yl)-1-(trans-4-methoxycyclohexyl)-1H-benzo[d]imidazol-2-yl)-1-(3-fluoro-4-methoxyphenyl)piperidin-2-one]	1 to 200	1 to 200
COc1ccc(N2C(=O)CCC[C@H]2c2nc3cc(-c4c(C)cnn4C)ccc3n2C2CCC(F)(F)CC2)cc1F [Compound 17, (S)-6-(1-(4,4-difluorocyclohexyl)-5-(1,4-dimethyl-1H-pyrazol-5-yl)-1H-benzo[d]imidazol-2-yl)-1-(3-fluoro-4-methoxyphenyl)piperidin-2-one]	1 to 200	1 to 200
Cc1cnn(C)c1-c1ccc2c(c1)nc([C@@H]1CCCC(=O)N1c1ccc(F)c(F)c1)n2[C@H]1CC[C@@](C)(O)CC1 [Compound 16, (S)-1-(3,4-difluorophenyl)-6-(5-(1,4-dimethyl-1H-pyrazol-5-yl)-1-(cis-4-hydroxy-4-methylcyclohexyl)-1H-benzo[d]imidazol-2-yl)piperidin-2-one]	1 to 200	1 to 200
COc1ccc(N2C(=O)CCC[C@H]2c2nc3cc(-c4c(C)cnn4C)ccc3n2[C@H]2CC[C@H](OC)CC2)cc1F [Compound 18, (S)-6-(5-(1,4-dimethyl-1H-pyrazol-5-yl)-1-(trans-4-methoxycyclohexyl)-1H-benzo[d]imidazol-2-yl)-1-(3-fluoro-4-methoxyphenyl)piperidin-2-one]	1 to 200	1 to 200
Cc1cnn(C)c1-c1ccc2c(c1)nc([C@@H]1CCCC(=O)N1c1ccc(F)c(F)c1)n2[C@H]1CC[C@H](O)CC1 [Compound 15, (S)-1-(3,4-difluorophenyl)-6-(5-(1,4-dimethyl-1H-pyrazol-5-yl)-1-(trans-4-hydroxycyclohexyl)-1H-benzo[d]imidazol-2-yl)piperidin-2-one]	1 to 200	1 to 200
Cc1nnn(C)c1-c1ccc2c(c1)nc([C@@H]1CCCC(=O)N1c1ccc(F)c(F)c1)n2[C@H]1CC[C@@](C)(O)CC1 [Compound 8, (S)-1-(3,4-difluorophenyl)-6-(5-(1,4-dimethyl-1H-1,2,3-triazol-5-yl)-1-(cis-4-hydroxy-4-methylcyclohexyl)-1H-benzo[d]imidazol-2-yl)piperidin-2-one]	1 to 200	1 to 200
Cc1nnn(C)c1-c1ccc2c(c1)nc([C@@H]1CCCC(=O)N1c1ccc(F)c(F)c1)n2C1CCC(F)(F)CC1 [Compound 14, (S)-6-(1-(4,4-difluorocyclohexyl)-5-(1,4-dimethyl-1H-1,2,3-triazol-5-yl)-1H-benzo[d]imidazol-2-yl)-1-(3,4-difluorophenyl)piperidin-2-one]	1 to 200	1 to 200
CO[C@H]1CC[C@H](n2c([C@@H]3CCCC(=O)N3c3ccc(F)c(F)c3)nc3cc(-c4c(C)nnn4C)ccc32)CC1 [Compound 12, (S)-1-(3,4-difluorophenyl)-6-(5-(1,4-dimethyl-1H-1,2,3-triazol-5-yl)-1-(trans-4-methoxycyclohexyl)-1H-benzo[d]imidazol-2-yl)piperidin-2-one]	1 to 200	1 to 200
Cc1ncn(C)c1-c1ccc2c(c1)nc([C@@H]1CCCC(=O)N1c1ccc(F)c(F)c1)n2[C@H]1CC[C@@](C)(O)CC1 [Compound 20, (S)-1-(3,4-difluorophenyl)-6-(5-(1,4-dimethyl-1H-imidazol-5-yl)-1-(cis-4-hydroxy-4-methylcyclohexyl)-1H-benzo[d]imidazol-2-yl)piperidin-2-one]	1 to 200	1 to 200
